Experimental findings from article PMC3245282 are described below.

The chains behind the UniProt entries cited, without tags or fusion partners.
UniProt P02994: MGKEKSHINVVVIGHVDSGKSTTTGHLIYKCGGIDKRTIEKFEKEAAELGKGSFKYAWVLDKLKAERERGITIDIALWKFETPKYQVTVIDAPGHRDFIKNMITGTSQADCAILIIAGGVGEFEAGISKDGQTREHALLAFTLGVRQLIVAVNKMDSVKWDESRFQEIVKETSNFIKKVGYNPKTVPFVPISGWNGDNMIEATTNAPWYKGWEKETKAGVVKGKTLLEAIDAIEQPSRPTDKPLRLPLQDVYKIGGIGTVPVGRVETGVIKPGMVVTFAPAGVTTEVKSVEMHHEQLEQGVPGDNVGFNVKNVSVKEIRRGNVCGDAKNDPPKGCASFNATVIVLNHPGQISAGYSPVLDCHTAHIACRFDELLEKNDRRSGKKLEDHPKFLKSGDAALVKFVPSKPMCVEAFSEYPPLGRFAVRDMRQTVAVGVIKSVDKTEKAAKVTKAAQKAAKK

In the assay the target is T1, His-tagged yeast eEF1Bα (guanine nucleotide exchange factor of eEF1A) (yeast) (UniProt P32471).
T1 sequence: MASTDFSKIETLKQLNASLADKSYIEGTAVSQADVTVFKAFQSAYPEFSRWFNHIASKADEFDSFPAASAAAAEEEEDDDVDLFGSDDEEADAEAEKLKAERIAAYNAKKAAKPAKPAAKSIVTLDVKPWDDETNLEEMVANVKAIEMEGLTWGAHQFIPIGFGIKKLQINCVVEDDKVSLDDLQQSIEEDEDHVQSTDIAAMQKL
The assay is described as follows: pull-down; only the target purified.

No constants are given. Whether binding was seen depends on the method and setting. Binding seen in cells or lysates may run through a third protein. Some entries that bind do so weakly or less than the wild type. Sequences can lack the tags named with a protein.

For the substance “yeast eukaryotic elongation factor 1A (eEF1A), native (from UniProt P02994 1-458)”, the binding entry is recorded as “binds”.
